Patent US20250145665A1, “MACROCYCLIC PEPTIDES USEFUL AS MODULATORS OF TNF ALPHA” (Bristol-Myers Squibb Company, priority 2023, published 2025)
Some entries share one result that the patent states for a list of compounds. Starred links: 1 amine or outer side, 2 acyl side, 3 side chain; linkers in the order of their positions; H or OH if unused. Positions of bridges follow the written chain, without caps; N, C: chain ends. Non-standard residues stand in square brackets, D forms with d. Residues, ends and D or L forms follow the SMILES beside them. Bip(4'-COOH) = N[C@@H](Cc1ccc(-c2ccc(C(=O)O)cc2)cc1)C(=O)O; Bip(4'-NHAc) = CC(=O)Nc1ccc(-c2ccc(C[C@H](N)C(=O)O)cc2)cc1; Phe(3-CH2NH2) = O=C([C@H](Cc1cccc(CN[*:3])c1)N[*:1])[*:2]; Ala(morpholin-4-yl) = N[C@@H](CN1CCOCC1)C(=O)O; Bip = N[C@@H](Cc1ccc(-c2ccccc2)cc1)C(=O)O; Morpholine(3S-CO) = O=C(O)[C@@H]1COCCN1; Pro(4S-NH2) = N[C@@H]1CN[C@H](C(=O)O)C1; Val(3-OH) = CC(C)(O)[C@H](N)C(=O)O; cisHyp = O=C(O)[C@@H]1C[C@H](O)CN1; h4Pal = N[C@@H](CCc1ccncc1)C(=O)O; 2Pal = N[C@@H](Cc1ccccn1)C(=O)O; Cha = N[C@@H](CC1CCCCC1)C(=O)O; Pip = O=C(O)[C@@H]1CCCCN1; Aze = O=C(O)[C@@H]1CCN1; Sar = CNCC(=O)O

Protein sequences, listed by entry. Tags and fused reporters are not part of them. Residues count along the entry.
UniProt P01375, 77-233 limits assumed: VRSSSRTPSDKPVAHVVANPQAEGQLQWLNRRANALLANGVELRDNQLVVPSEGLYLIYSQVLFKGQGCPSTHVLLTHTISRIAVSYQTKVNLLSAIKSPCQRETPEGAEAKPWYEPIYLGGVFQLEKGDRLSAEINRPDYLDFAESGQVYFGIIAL

Each compound was assayed against TNFα (Homo sapiens, UniProt P01375) (assay: TNF-Induced HEK-Blue Assay). Conditions: summary statement for all examples; read-out: IC50 values measured in the TNF induced HEK-Blue assay.
Format: cell-based

IC50, ≤ 25 µM:
CC(=O)Nc1ccc(-c2ccc(C[C@@H]3NC(=O)[C@H](Cc4ccc(-c5ccccc5)cc4)NC(=O)[C@H](C(C)(C)O)NC(=O)CSC[C@@H](C(=O)NCC(N)=O)NC(=O)[C@H](CC(C)C)NC(=O)[C@H](Cc4ccc(O)cc4)NC(=O)[C@H](C(C)C)NC(=O)[C@@H]4CCCN4C(=O)[C@H](Cc4ccc(O)cc4)NC(=O)[C@@H](CCCNC(=N)N)NC(=O)[C@H](CC(=O)O)NC(=O)[C@H](Cc4ccccn4)NC(=O)CN(C)C3=O)cc2)cc1 [Example 178] ({CH2CO}-[Val(3-OH)][Bip][Bip(4'-NHAc)][Sar][2Pal]D[dR]YPVYLCG-NH2; thioether N-13)
CC(=O)Nc1ccc(-c2ccc(C[C@@H]3NC(=O)[C@H](Cc4ccc(-c5ccccc5)cc4)NC(=O)[C@H](CN4CCOCC4)NC(=O)CSC[C@@H](C(=O)N[C@@H](CCCCN)C(=O)O)NC(=O)[C@H](CC(C)C)NC(=O)[C@H](Cc4ccc(O)cc4)NC(=O)[C@H](C(C)C)NC(=O)[C@@H]4CCCN4C(=O)[C@H](C(C)C)NC(=O)[C@@H](CCCNC(=N)N)NC(=O)[C@H](CC(=O)O)NC(=O)[C@H](Cc4ccccn4)NC(=O)CN(C)C3=O)cc2)cc1 [Example 179] ({CH2CO}-[Ala(morpholin-4-yl)][Bip][Bip(4'-NHAc)][Sar][2Pal]D[dR]VPVYLCK-OH; thioether N-13)
CC(=O)Nc1ccc(-c2ccc(C[C@@H]3NC(=O)[C@H](Cc4ccc(-c5ccccc5)cc4)NC(=O)[C@H](CN4CCOCC4)NC(=O)CSC[C@@H](C(=O)NCC(N)=O)NC(=O)[C@H](CC(C)C)NC(=O)[C@H](Cc4ccc(O)cc4)NC(=O)[C@H](C(C)C)NC(=O)[C@@H]4COCCN4C(=O)[C@H](C(C)C)NC(=O)[C@@H](CCCNC(=N)N)NC(=O)[C@H](CC(=O)O)NC(=O)[C@H](Cc4ccccn4)NC(=O)CN(C)C3=O)cc2)cc1 [Example 180] ({CH2CO}-[Ala(morpholin-4-yl)][Bip][Bip(4'-NHAc)][Sar][2Pal]D[dR]V[Morpholine(3S-CO)]VYLCG-NH2; thioether N-13)
CC(=O)Nc1ccc(-c2ccc(C[C@@H]3NC(=O)[C@H](Cc4ccc(-c5ccc(C(=O)O)cc5)cc4)NC(=O)[C@H](CN4CCOCC4)NC(=O)CSC[C@@H](C(=O)NCC(N)=O)NC(=O)[C@H](CC(C)C)NC(=O)[C@H](Cc4cccc(CN)c4)NC(=O)[C@H](C(C)C)NC(=O)[C@@H]4CCN4C(=O)[C@H](C(C)C)NC(=O)[C@@H](CCCNC(=N)N)NC(=O)[C@H](CC(=O)O)NC(=O)[C@H](Cc4ccccn4)NC(=O)CN(C)C3=O)cc2)cc1 [Example 181] ({CH2CO}-[Ala(morpholin-4-yl)][Bip(4'-COOH)][Bip(4'-NHAc)][Sar][2Pal]D[dR]V[Aze]V[Phe(3-CH2NH2)]LCG-NH2; thioether N-13)
CC(=O)Nc1ccc(-c2ccc(C[C@@H]3NC(=O)[C@H](Cc4ccc(-c5ccccc5)cc4)NC(=O)[C@H](CN4CCOCC4)NC(=O)CSC[C@@H](C(=O)NCC(N)=O)NC(=O)[C@H](CC(C)C)NC(=O)[C@H](Cc4ccc(O)cc4)NC(=O)[C@H](C(C)C)NC(=O)[C@@H]4CCCN4C(=O)[C@H](C(C)C)NC(=O)[C@@H](CCCNC(=N)N)NC(=O)[C@H](CC(=O)O)NC(=O)[C@@H]4CCCCN4C(=O)CN(C)C3=O)cc2)cc1 [Example 182] ({CH2CO}-[Ala(morpholin-4-yl)][Bip][Bip(4'-NHAc)][Sar][Pip]D[dR]VPVYLCG-NH2; thioether N-13)
CC(=O)Nc1ccc(-c2ccc(C[C@@H]3NC(=O)[C@H](Cc4ccc(-c5ccccc5)cc4)NC(=O)[C@H](CN4CCOCC4)NC(=O)CSC[C@@H](C(=O)NCC(N)=O)NC(=O)[C@H](CC(C)C)NC(=O)[C@H](Cc4ccc(O)cc4)NC(=O)[C@H](C(C)C)NC(=O)[C@@H]4CCCN4C(=O)[C@H](C(C)C)NC(=O)[C@@H](CCCNC(=N)N)NC(=O)[C@H](CC(=O)O)NC(=O)[C@@H]4C[C@H](O)CN4C(=O)CN(C)C3=O)cc2)cc1 [Example 183] ({CH2CO}-[Ala(morpholin-4-yl)][Bip][Bip(4'-NHAc)][Sar][cisHyp]D[dR]VPVYLCG-NH2; thioether N-13)
CC(=O)Nc1ccc(-c2ccc(C[C@@H]3NC(=O)[C@H](Cc4ccc(-c5ccccc5)cc4)NC(=O)[C@H](CN4CCOCC4)NC(=O)CSC[C@@H](C(=O)NCC(N)=O)NC(=O)[C@H](CC(C)C)NC(=O)[C@H](Cc4ccc(O)cc4)NC(=O)[C@H](C(C)C)NC(=O)[C@@H]4CCCN4C(=O)[C@H](C(C)C)NC(=O)[C@@H](CCCNC(=N)N)NC(=O)[C@H](CC(=O)O)NC(=O)[C@@H]4C[C@H](N)CN4C(=O)CN(C)C3=O)cc2)cc1 [Example 184] ({CH2CO}-[Ala(morpholin-4-yl)][Bip][Bip(4'-NHAc)][Sar][Pro(4S-NH2)]D[dR]VPVYLCG-NH2; thioether N-13)
CC(=O)Nc1ccc(-c2ccc(C[C@@H]3NC(=O)[C@H](Cc4ccc(-c5ccc(C(=O)O)cc5)cc4)NC(=O)[C@H](CN4CCOCC4)NC(=O)CSC[C@@H](C(=O)NCC(N)=O)NC(=O)[C@H](CC(C)C)NC(=O)[C@H](CCCNC(=N)N)NC(=O)[C@H](C(C)C)NC(=O)[C@@H]4CCN4C(=O)[C@H](C(C)C)NC(=O)[C@@H](CCCNC(=N)N)NC(=O)[C@H](CC(=O)O)NC(=O)[C@H](Cc4ccccn4)NC(=O)CN(C)C3=O)cc2)cc1 [Example 185] ({CH2CO}-[Ala(morpholin-4-yl)][Bip(4'-COOH)][Bip(4'-NHAc)][Sar][2Pal]D[dR]V[Aze]VRLCG-NH2; thioether N-13)
CC(C)C[C@@H]1NC(=O)[C@H](Cc2ccc(O)cc2)NC(=O)[C@H](C(C)C)NC(=O)[C@@H]2CCCN2C(=O)[C@H](C(C)C)NC(=O)[C@@H](CCCNC(=N)N)NC(=O)[C@H](CC(=O)O)NC(=O)[C@H](Cc2ccc(O)cc2)NC(=O)CN(C)C(=O)[C@H](Cc2ccc(-c3ccccc3)cc2)NC(=O)[C@H](Cc2ccc(-c3ccc(C(=O)O)cc3)cc2)NC(=O)[C@H](CCc2ccncc2)NC(=O)CSC[C@@H](C(=O)NCC(N)=O)NC1=O [Example 186] ({CH2CO}-[h4Pal][Bip(4'-COOH)][Bip][Sar]YD[dR]VPVYLCG-NH2; thioether N-13)
CC(C)C[C@@H]1NC(=O)[C@H](Cc2ccc(O)cc2)NC(=O)[C@H](C(C)C)NC(=O)[C@@H]2CCCN2C(=O)[C@H](C(C)C)NC(=O)[C@@H](CCCNC(=N)N)NC(=O)[C@H](CC(=O)O)NC(=O)[C@H](Cc2ccc(O)cc2)NC(=O)CN(C)C(=O)[C@H](Cc2ccc(-c3ccccc3)cc2)NC(=O)[C@H](Cc2ccc(-c3ccc(C(=O)O)cc3)cc2)NC(=O)[C@H](CC2CCCCC2)NC(=O)CSC[C@@H](C(=O)NCC(N)=O)NC1=O [Example 187] ({CH2CO}-[Cha][Bip(4'-COOH)][Bip][Sar]YD[dR]VPVYLCG-NH2; thioether N-13)
CC[C@H](C)[C@@H]1NC(=O)CSC[C@@H](C(=O)NCC(N)=O)NC(=O)[C@H](CC(C)C)NC(=O)[C@H](Cc2ccc(O)cc2)NC(=O)[C@H](C(C)C)NC(=O)[C@@H]2CCCN2C(=O)[C@H](C(C)C)NC(=O)[C@@H](CCCNC(=N)N)NC(=O)[C@H](CC(=O)O)NC(=O)[C@H](Cc2ccc(O)cc2)NC(=O)CN(C)C(=O)[C@H](Cc2ccc(-c3ccccc3)cc2)NC(=O)[C@H](Cc2ccc(-c3ccc(C(=O)O)cc3)cc2)NC1=O [Example 188] ({CH2CO}-I[Bip(4'-COOH)][Bip][Sar]YD[dR]VPVYLCG-NH2; thioether N-13)
CC(C)C[C@@H]1NC(=O)[C@H](Cc2ccc(O)cc2)NC(=O)[C@H](C(C)C)NC(=O)[C@@H]2CCCN2C(=O)[C@H](C(C)C)NC(=O)[C@@H](CCCNC(=N)N)NC(=O)[C@H](CC(=O)O)NC(=O)[C@H](Cc2ccc(O)cc2)NC(=O)CN(C)C(=O)[C@H](Cc2ccc(-c3ccccc3)cc2)NC(=O)[C@H](Cc2ccc(-c3ccc(C(=O)O)cc3)cc2)NC(=O)[C@H](Cc2c[nH]c3ccccc23)NC(=O)CSC[C@@H](C(=O)NCC(N)=O)NC1=O [Example 189] ({CH2CO}-W[Bip(4'-COOH)][Bip][Sar]YD[dR]VPVYLCG-NH2; thioether N-13)
CC(=O)Nc1ccc(-c2ccc(C[C@@H]3NC(=O)[C@H](Cc4ccc(-c5ccc(C(=O)O)cc5)cc4)NC(=O)[C@H](CN4CCOCC4)NC(=O)CSC[C@@H](C(=O)NCC(N)=O)NC(=O)[C@H](CC(C)C)NC(=O)[C@H](Cc4ccccn4)NC(=O)[C@H](C(C)C)NC(=O)[C@@H]4CCN4C(=O)[C@H](C(C)C)NC(=O)[C@@H](CCCNC(=N)N)NC(=O)[C@H](CC(=O)O)NC(=O)[C@H](Cc4ccccn4)NC(=O)CN(C)C3=O)cc2)cc1 [Example 190] ({CH2CO}-[Ala(morpholin-4-yl)][Bip(4'-COOH)][Bip(4'-NHAc)][Sar][2Pal]D[dR]V[Aze]V[2Pal]LCG-NH2; thioether N-13)
CC(=O)Nc1ccc(-c2ccc(C[C@@H]3NC(=O)[C@H](Cc4ccc(-c5ccc(C(=O)O)cc5)cc4)NC(=O)[C@H](CN4CCOCC4)NC(=O)CSC[C@@H](C(=O)NCC(N)=O)NC(=O)[C@H](CC(C)C)NC(=O)[C@H](CCCNC(=N)N)NC(=O)[C@H](C(C)C)NC(=O)[C@@H]4CCCN4C(=O)[C@H](C(C)C)NC(=O)[C@H](CCCNC(=N)N)NC(=O)[C@H](CC(=O)O)NC(=O)[C@H](Cc4ccc(O)cc4)NC(=O)CN(C)C3=O)cc2)cc1 [Example 191] ({CH2CO}-[Ala(morpholin-4-yl)][Bip(4'-COOH)][Bip(4'-NHAc)][Sar]YDRVPVRLCG-NH2; thioether N-13)
CC(=O)Nc1ccc(-c2ccc(C[C@@H]3NC(=O)[C@H](Cc4ccc(-c5ccccc5)cc4)NC(=O)[C@H](CN4CCOCC4)NC(=O)CSC[C@@H](C(=O)NCC(N)=O)NC(=O)[C@H](CC(C)C)NC(=O)[C@H](CCCNC(=N)N)NC(=O)[C@H](C(C)C)NC(=O)[C@@H]4CCCN4C(=O)[C@H](C(C)C)NC(=O)[C@H](CCCNC(=N)N)NC(=O)[C@H](CC(=O)O)NC(=O)[C@H](Cc4ccc(O)cc4)NC(=O)CNC3=O)cc2)cc1 [Example 192] ({CH2CO}-[Ala(morpholin-4-yl)][Bip][Bip(4'-NHAc)]GYDRVPVRLCG-NH2; thioether N-13)
CC(=O)Nc1ccc(-c2ccc(C[C@@H]3NC(=O)[C@H](Cc4ccc(-c5ccccc5)cc4)NC(=O)[C@H](C(C)(C)O)NC(=O)CSC[C@@H](C(=O)NCC(N)=O)NC(=O)[C@H](CC(C)C)NC(=O)[C@H](CCCNC(=N)N)NC(=O)[C@H](C(C)C)NC(=O)[C@@H]4CCCN4C(=O)[C@H](C(C)C)NC(=O)[C@H](CCCNC(=N)N)NC(=O)[C@H](CC(=O)O)NC(=O)[C@H](Cc4ccc(O)cc4)NC(=O)CN(C)C3=O)cc2)cc1 [Example 193] ({CH2CO}-[Val(3-OH)][Bip][Bip(4'-NHAc)][Sar]YDRVPVRLCG-NH2; thioether N-13)
